Measured values reported in PubChem BioAssay AID504467 (National Center for Advancing Translational Sciences (NCATS), 2011).
The whole screen tested about 330,000 compounds, of which about 7,700 (2.3%) were called active. Inconclusive means that the source gave no clear call. Such entries were picked first, then a sample of the others. The call rests on the fitted dose curve; in most records, active means well fitted inhibition curve with a large enough effect; inconclusive means small, poorly fitted or top-dose-only effect, or effect the other way; inactive means flat fitted curve, though single readings scatter. Potencies of inconclusive entries are doubtful fits and often do not repeat.

Assay: qHTS screen for small molecules that inhibit ELG1-dependent DNA repair in human embryonic kidney (HEK293T) cells expressing luciferase-tagged ELG1; further: nearly all actives have a fitted effect of over 55% in size
Settings: HEK293T ELG1-luciferase reporter, luminescence, 16 h, DNA damage induced by 5-fluorouridine; series mostly up to 46.1 µM
Outline: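 5-Fluorouridine DNA damage + compound/DMSO, 2,000 cells/well, 16 h, 37 °C/5% CO2. ONE-Glo, 30 min RT, luminescence. Readout = decrease in reporter signal.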
Potency means the concentration at half of the fitted maximal effect.

Row | SMILES | Potency
1 | CC1(C)CC2CC(C)(CN2S(=O)(=O)c2ccccc2[N+](=O)[O-])C1 (stereo unspecified) | inconclusive: 9.2 µM [inhibitor, partial curve, poor fit]
2 | O=C(Nc1c(Cl)cc(Cl)cc1C(=O)NCc1cccnc1)c1ccc(Cl)cc1Cl | inconclusive: 18.4 µM [activator, single point]
3 | CCSc1nnc(NC(=O)c2cccs2)s1 | inconclusive: 10.3 µM [activator, partial curve]
4 | COC(=O)[C@@]12CCCCN1[C@H](c1ccc(-c3ccc(OC)cc3)cc1)[C@H]1C(=O)N(C)C(=O)[C@H]12 | inconclusive: 15.8 µM [inhibitor, partial curve, poor fit]
5 | Cc1ccc(C(=O)/C=C/Nc2ccc3c(c2)OCO3)cc1 | inconclusive: 1.3 µM [activator, partial curve]
6 | CC(=O)Nc1ccc(C(=O)COC(=O)C2CC2)c(F)c1 | inconclusive: 13 µM [activator, partial curve]
7 | Cc1ccc(CN2CCC(c3nc4ccc(Cl)cc4[nH]3)CC2)cc1 | inconclusive: 14.6 µM [inhibitor, partial curve, poor fit]
8 | CCN1CCN(c2ccc(NC(=O)c3ccco3)cc2Cl)CC1 | inconclusive: 20.6 µM [activator, partial curve]
9 | Cc1ccc(Oc2nc(CN3CCOCC3)nc3sc4c(c23)CCC(C)C4)cc1 (stereo unspecified) | active: 25.9 µM
10 | COc1cccc(-n2c(C)cc(/C=C3/C(=N)N4C(=NC3=O)SN=C4S(C)(=O)=O)c2C)c1 | inconclusive: 23.1 µM [activator, single point]
11 | OCCN1CCN(C(c2cccs2)c2ccc3cccnc3c2O)CC1 (stereo unspecified) | inactive
12 | COc1ccc(-c2ccc(S(=O)(=O)N3CCCC3)cc2)cc1 | inconclusive: 29.1 µM [inhibitor, single point]
13 | Cc1ccccc1C(=O)Nc1cccc(-c2ccc3nncn3n2)c1 | inconclusive: 1.03 µM [inhibitor, partial curve, poor fit]
14 | CCOc1ccc2[nH]c(=O)c(C(c3nnnn3Cc3ccco3)N3CCN(C)CC3)cc2c1 (stereo unspecified) | inconclusive: 32.6 µM [inhibitor, single point]
15 | CC(NC(=O)Cn1cnc([N+](=O)[O-])n1)c1ccccc1 (stereo unspecified) | inactive
16 | O=S(=O)(NCC1OCCc2ccccc21)c1ccc(S(=O)(=O)N2CCOCC2)cc1 (stereo unspecified) | inactive
17 | CC(C)c1nc(N2CCN(C(=O)c3ccco3)CC2)c2c3c(sc2n1)CCCC3 | inconclusive: 23.1 µM [inhibitor, single point]
18 | Cc1cc(C)nc(N/N=C/c2ccccc2OCC(=O)O)n1 | inactive
19 | O=C(Cc1cccs1)NCCCc1ccccc1 | inconclusive: 5.17 µM [inhibitor, partial curve, poor fit]
20 | COc1ccc(/C=N/NC(=O)c2cnccn2)cc1O | inconclusive: 20.6 µM [activator, partial curve]
21 | Cc1[nH]nc2c1C(c1ccc(-c3ccc(Cl)cc3)o1)C(C#N)=C(N)O2 (stereo unspecified) | inconclusive: 32.6 µM [activator, partial curve, poor fit]
22 | O=C(O)C1C2CCC(O2)C1C(=O)Nc1cnn(Cc2ccccc2)c1 (stereo unspecified) | inconclusive: 32.6 µM [activator, partial curve, poor fit]

Arranged by molecular weight (descending): part of the list above.
Row | SMILES | Potency
13 | Cc1ccccc1C(=O)Nc1cccc(-c2ccc3nncn3n2)c1 | inconclusive: 1.03 µM [inhibitor, partial curve, poor fit]
15 | CC(NC(=O)Cn1cnc([N+](=O)[O-])n1)c1ccccc1 (stereo unspecified) | inactive
19 | O=C(Cc1cccs1)NCCCc1ccccc1 | inconclusive: 5.17 µM [inhibitor, partial curve, poor fit]

Later entries.

Row | SMILES | Potency
23 | CCOc1ccccc1C(=O)OCC(=O)Nc1ccc(OC(F)F)cc1 | inconclusive: 18.4 µM [inhibitor, partial curve, poor fit]
24 | CCCNC(=O)c1c[nH]c2ccc(S(=O)(=O)N(C)c3ccc(OCC)cc3)cc2c1=O | inconclusive: 20.6 µM [inhibitor, partial curve]
25 | C=CCSc1nnc2c(n1)[nH]c1c(C)cccc12 | inconclusive: 1.84 µM [activator, partial curve]
26 | Cc1ccc(-c2csc(NC(=O)CN3CCC(C(N)=O)CC3)n2)cc1 | inconclusive: 25.9 µM [inhibitor, partial curve, poor fit]
27 | O=C(c1ccccc1)N1CCN(C(=O)c2ccccc2Br)CC1 | inactive
28 | CCCCN(C)C(=O)c1cc2cc([N+](=O)[O-])cc(OC)c2oc1=O | inactive
29 | c1ccc(C2CCC(N3CCN(c4ccccc4)CC3)CC2)cc1 (stereo unspecified) | inactive
30 | O=C(NCCN1C(=O)S/C(=C\c2cccnc2)C1=O)c1cc(S(=O)(=O)N2CCOCC2)ccc1F | inconclusive: 32.6 µM [inhibitor, partial curve, poor fit]
31 | COc1ccc(N2CCN(Cc3nc(N)nc(Nc4ccc(C)c(Cl)c4)n3)CC2)cc1 | active: 13 µM
32 | COc1cc(C2C(C#N)=C(N)Oc3c2ccc2ccccc32)ccc1OCC(=O)Nc1ccccc1C (stereo unspecified) | inconclusive: 20.6 µM [inhibitor, partial curve]
33 | O=C(NCCc1csc(-c2ccccc2)n1)c1c(F)cccc1Cl | active: 18.3 µM
34 | COc1cccc(C(=O)NCC(c2cccs2)N2CCc3ccccc32)c1 (stereo unspecified) | inconclusive: 14.6 µM [inhibitor, single point]
35 | Cc1ccc(-c2nn3c(C)nnc3c3ccccc23)cc1S(=O)(=O)NCCN1CCOCC1 | inconclusive: 17.8 µM [activator, single point]
36 | Cn1ccnc1SCC(=O)c1c[nH]c2ccccc12 | inconclusive: 16.4 µM [activator, partial curve]
37 | O=C(O)c1ccc(-c2nc(-c3ccc(Cl)cc3Cl)cs2)cc1 | inconclusive: 5.17 µM [activator, full curve]
38 | Cc1ccc(NC(=O)c2cccnc2)c([N+](=O)[O-])c1 | inactive
39 | CC(/C=C/c1ccc2c(c1)OCO2)=N\NC(=O)c1cccc([N+](=O)[O-])c1 | inconclusive: 13 µM [inhibitor, partial curve, poor fit]
40 | Cc1c(CCO)c(=O)oc2n[nH]c(-c3ccccc3)c12 | inactive
41 | CC(Sc1nnc(-c2cccs2)n1-c1ccccc1)C(=O)NCc1ccc2c(c1)OCO2 (stereo unspecified) | inconclusive: 23.1 µM [inhibitor, partial curve, poor fit]
42 | COc1ccc(C2=NN(C(C#N)c3ccc(OC)c(OC)c3)C(c3ccccc3)C2)cc1 (stereo unspecified) | inconclusive: 13 µM [activator, partial curve]
43 | COCCN(C(=O)Nc1ccc(F)cc1F)c1nc2ccccc2s1 | inconclusive: 20.6 µM [activator, partial curve]
44 | COc1ccc(/C=C/C(=O)c2ccccc2)cc1COc1ccc(F)cc1 | inactive

Row | SMILES | Potency
45 | COC(=O)N1c2ccccc2CCc2ccccc21 | inconclusive: 32.6 µM [inhibitor, single point]
46 | CCS(=O)(=O)n1nc(-c2ccco2)nc1N | inconclusive: 20.6 µM [activator, partial curve, poor fit]
47 | CCOc1ccc(N2C(=O)CC(SCc3nc4ccccc4[nH]3)C2=O)cc1 (stereo unspecified) | inactive
48 | O=C(CCCN1C(=O)S/C(=C\C=C\c2ccccc2)C1=O)Nc1ccc(O)cc1 | inconclusive: 7.3 µM [activator, partial curve]
49 | CCOc1ccc(C2C3=C(CCCC3=O)Nc3nc(C(F)(F)F)nn32)cc1OC (stereo unspecified) | inactive
50 | O=C(NNC(=S)Nc1ccc(Br)cc1)c1ccccc1 | inconclusive: 20.6 µM [activator, single point]
51 | CCN(CC)c1ccc(N2C(=O)/C(=C\c3cccnc3)SC2=S)cc1 | inconclusive: 1.16 µM [activator, single point]
52 | Cc1cc(-c2ccccc2)nc2cc(C(=O)NCCCn3ccnc3)nn12 | inactive
53 | C#CC[N+](C)(C)CC#Cc1ccccc1 | inconclusive: 20.6 µM [activator, single point]
54 | O=C(O)c1cccc(C(=O)Nc2cccc(NC(=O)C3CCCO3)c2)c1 (stereo unspecified) | inconclusive: 4.61 µM [inhibitor, single point]
55 | C#CCOCCOCCOCCNc1nc(N2CCN(C(=O)[C@H]([C@@H](C)CC)n3cc([C@@H](N)CO)nn3)CC2)nc(N2CCN(C(=O)[C@H](Cc3cc4ccccc4[nH]3)n3cc([C@@H](N)C(C)CC)nn3)CC2)n1 (stereo partly specified) | inconclusive: 20.6 µM [activator, partial curve]
56 | O=C(CNC1CCN(Cc2ccccc2)CC1)Nc1ccc(S(=O)(=O)N2CCCCC2)cc1 | inconclusive: 29.1 µM [inhibitor, single point]
57 | Cc1cc(N2CCOCC2)ccc1/C=C\[N+](=O)[O-] | inconclusive: 29.1 µM [inhibitor, single point]
58 | Cc1ccc(Cn2c(=N)c(S(=O)(=O)c3ccc(Br)cc3)cc3c(=O)n4ccccc4nc32)cc1 | inactive
59 | CCN(CC)CCOc1ccc2c(c1)C(=NO)c1cc(OCCN(CC)CC)ccc1-2 | inconclusive: 29.1 µM [inhibitor, single point]
60 | COC(=O)c1sc2cnccc2c1N | inconclusive: 11.6 µM [inhibitor, partial curve]
61 | COc1cc2nc(SCc3ccc(F)cc3)n(Cc3cccs3)c(=N)c2cc1OC | inconclusive: 35.5 µM [inhibitor, single point]
62 | CCC(C)c1ccc(S(=O)(=O)Nc2cccnc2)cc1 (stereo unspecified) | inconclusive: 16.4 µM [inhibitor, partial curve, poor fit]
63 | CC(=O)N1c2ccc(S(=O)(=O)N3CCC(C(=O)NCc4ccc(C)cc4)CC3)cc2CC1C (stereo unspecified) | inconclusive: 16.4 µM [inhibitor, partial curve]
64 | CCOc1ccccc1NC(=O)C(OC(=O)c1ccccc1O)c1ccccc1 (stereo unspecified) | inactive
65 | Cc1occc1C(=O)NC(C)CCc1ccccc1 (stereo unspecified) | inactive
66 | COc1ccc(-c2csc3ncn(-c4ccccc4OC)c(=O)c23)cc1OC | inconclusive: 20.6 µM [activator, partial curve]

Some of the entries so far, as a markdown table.

| Row | SMILES | Potency |
| --- | --- | --- |
| 58 | Cc1ccc(Cn2c(=N)c(S(=O)(=O)c3ccc(Br)cc3)cc3c(=O)n4ccccc4nc32)cc1 | inactive |
| 59 | CCN(CC)CCOc1ccc2c(c1)C(=NO)c1cc(OCCN(CC)CC)ccc1-2 | inconclusive: 29.1 µM [inhibitor, single point] |
